Laboratory results as given in the M2OR odorant receptor database.
Substitutions are numbered along the chain they refer to. This is one part of the list. The calls were merged from several studies; some rest on single wells.

Chains of the proteins cited; added tags and fusions are not shown. Chains listed by the source or under a name are the forms on record and can include a tag or linker.
OR1A1, as listed by the source: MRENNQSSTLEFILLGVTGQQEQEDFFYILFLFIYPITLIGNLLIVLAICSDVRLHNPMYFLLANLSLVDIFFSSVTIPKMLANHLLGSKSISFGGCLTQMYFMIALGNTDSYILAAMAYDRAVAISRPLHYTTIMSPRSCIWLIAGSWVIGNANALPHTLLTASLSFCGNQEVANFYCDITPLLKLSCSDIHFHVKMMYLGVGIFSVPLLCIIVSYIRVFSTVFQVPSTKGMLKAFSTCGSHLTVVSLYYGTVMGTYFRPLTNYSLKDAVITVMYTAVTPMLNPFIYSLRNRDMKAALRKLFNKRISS

tested on: T1, OR1A1; settings: stereoisomer not certain
T1 sequence (whole entry): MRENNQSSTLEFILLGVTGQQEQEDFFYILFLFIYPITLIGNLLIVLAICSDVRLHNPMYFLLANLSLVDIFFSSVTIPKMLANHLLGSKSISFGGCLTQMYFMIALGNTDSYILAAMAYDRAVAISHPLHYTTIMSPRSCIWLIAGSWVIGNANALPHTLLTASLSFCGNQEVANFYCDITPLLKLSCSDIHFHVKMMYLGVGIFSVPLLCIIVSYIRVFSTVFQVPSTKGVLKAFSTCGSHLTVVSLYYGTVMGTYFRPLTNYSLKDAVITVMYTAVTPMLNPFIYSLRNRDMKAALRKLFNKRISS
In short: (§1)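 Transient luciferase assays in mammalian cell lines were common, though methods varied by source. The values come from published papers and their supplementary material, with extra details from the original authors when needed. Responsive refers to a measured signal the original authors judged statistically different from baseline, and non-responsive (inactive) to the remainder.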

Odorant receptor agonist call, active:
CC1COCc2cc3c(cc21)C(C)(C)C(C)C3(C)C (stereo not drawn)
CC(=O)OC(C)(C)C1CC=C(C)CC1 (stereo not drawn)
CC1CCC(C(C)C)C(O)C1 (stereo not drawn)

Odorant receptor agonist call, inactive:
CC12C=CCC1C1CCC3=CC(=O)CCC3(C)C1CC2 (stereo not drawn)
COC(=O)c1ccccc1O
O=C1CCCCCCCCCCCCCCO1
COc1cc(C)ccc1O
CCCCCCOC(=O)CCC
C=CCc1ccc(OC)c(OC)c1
O=C1CCCCCCCCCCCC(=O)OCCO1
CC(C)CC(=O)O
CC(C)CCC(=O)O
CC12CCC(CC1)C(C)(C)O2
CC(C)C=O
CCCCCC(C)=O
CCCC(=O)O
C=CCc1ccc(OC(C)=O)c(OC)c1
COc1cc(C=O)ccc1O
CC(=O)C(C)=O
CCC=CCCO
CC12CCC(C1)C(C)(C)C2=O (stereo not drawn)
CC(=O)OC1CC2CCC1(C)C2(C)C (stereo not drawn)
CC1=CCC(C(C)(C)O)CC1 (stereo not drawn)

tested on: T2, OR1A1; settings: stereoisomer not certain
T2 sequence (whole entry): T1 sequence (whole entry) with H128R, V233M
In short: as §1

Odorant receptor agonist call, active:
CC(=O)OC(C)(C)C1CC=C(C)CC1 (stereo not drawn)
C=CCc1ccc(OC)c(OC)c1
CC(C)CC(=O)O
C=C(C)C1CCC2=CC(=O)CC(C)C2(C)C1 (stereo not drawn)
CCCCCC(C)=O
CCCC(=O)O
COc1cc(C=O)ccc1O
CC(=O)C(C)=O
CC1CCC(C(C)C)C(O)C1 (stereo not drawn)
CC(C)(O)CCCC1=CCC(C=O)CC1 (stereo not drawn)
CC1=CCC(C(C)(C)O)CC1 (stereo not drawn)

Odorant receptor agonist call, inactive:
CC12C=CCC1C1CCC3=CC(=O)CCC3(C)C1CC2 (stereo not drawn)
CC1COCc2cc3c(cc21)C(C)(C)C(C)C3(C)C (stereo not drawn)
COC(=O)c1ccccc1O
O=C1CCCCCCCCCCCCCCO1
COc1cc(C)ccc1O
CCCCCCOC(=O)CCC
O=C1CCCCCCCCCCCC(=O)OCCO1
CC(C)CCC(=O)O
CC12CCC(CC1)C(C)(C)O2
CC(C)C=O
C=CCc1ccc(OC(C)=O)c(OC)c1
CCC=CCCO
CC12CCC(C1)C(C)(C)C2=O (stereo not drawn)
CC(=O)OC1CC2CCC1(C)C2(C)C (stereo not drawn)
